PubChem BioAssay AID624297 (National Center for Advancing Translational Sciences (NCATS), 2012)
Out of some 340,000 compounds screened, about 6,200 (1.8%) were called active. The shares of active, inactive and inconclusive entries below differ from those in the screen. Calls come from the whole dose curve; as a rule, active = well fitted activation curve with a large enough effect; inconclusive = small, poorly fitted or top-dose-only effect; inactive = no such curve, though single readings can be large or run the other way. Potencies beside an inconclusive call are fits to weak or partial responses and may not hold up.

Test: A quantitative high throughput screen for small molecules that induce DNA re-replication in SW480 colon adenocarcinoma cells. For re-replication activation: % of control where 0% means no effect. Note: nearly all actives have a fitted effect of over 55% in size.
Settings: Hoechst DNA content imaging, 48 h; re-replication activation: at 46.1 µM (top of the series) unless noted
Method in brief: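 Image-based DNA-content assay: after two days of treatment, nuclei were labelled with the DNA dye Hoechst and imaged, and hits were compounds raising the count of nuclei showing high fluorescence intensity.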
Potency is the fitted concentration of half-maximal effect.

Row | Compound | Potency | re-replication activation
1 | COc1ccc(S(=O)(=O)NCc2ccncc2)cc1NC(=O)c1ccccc1C | inconclusive: 2.31 µM [activator, partial curve, poor fit] | –
2 | CCOC(=O)c1ccc(Oc2coc3cc(O)ccc3c2=O)cc1 | inconclusive: 5.17 µM [activator, full curve, poor fit] | –
3 | CC1CCCCC1NC(=O)c1ccc2c(c1)OCCO2 (stereo unspecified) | inconclusive: 13 µM [activator, single point] | –
4 | CCOc1ccc(Cc2n[nH]c(=S)n2Cc2ccccc2)cc1 | – | inactive: 3.15%
5 | O=C(/C=C/Nc1ccc(F)c(Cl)c1)c1ccccc1 | – | inactive: 12.5%
6 | C=CCn1c(SCC(=O)OCC)nc2cc(C(=O)NCc3ccco3)ccc2c1=O | – | inactive: -14.8%
7 | Cc1ccc(S(=O)(=O)N2CCCCC2CCNC(=O)C(=O)NCc2ccco2)cc1 (stereo unspecified) | inconclusive: 14.6 µM [activator, partial curve, poor fit] | –
8 | C=CCNC(=O)/C(C#N)=C/c1c(N2CCN(c3cccc(Cl)c3)CC2)nc2c(C)cccn2c1=O | – | inactive: 4.23%
9 | COC(=O)CSC1=C(C#N)C(c2cccc(F)c2)CC(=O)N1 (stereo unspecified) | inconclusive: 29.1 µM [activator, single point] | –
10 | Cn1c(=O)n(CCCOc2ccc(Cl)cc2)c2ccccc21 | – | inactive: -6.38%
11 | Cc1ccc(OCc2cc(C(=O)N(C)CCc3ccccn3)no2)cc1C | inconclusive: 0.651 µM [activator, partial curve, poor fit] | –
12 | Cc1cc(C)c(OCC(=O)NCC2COc3ccccc3O2)c(C)c1 (stereo unspecified) | – | inactive: 0.363%
13 | Cc1cccc(C)c1OCCOCCN1CCN(C)CC1 | inactive | –
14 | CCN(CC)C(=O)Oc1ccc(Br)c2ccccc12 | – | inconclusive: 361% [activator]
15 | CC1CCN(S(=O)(=O)c2cc([N+](=O)[O-])ccc2Cl)CC1 | inconclusive: 29.1 µM [activator, single point] | –
16 | Cc1ccc(Cl)c2c(N=Nc3ccccc3)c(O)[nH]c12 | inconclusive: 32.6 µM [activator, partial curve, poor fit] | –
17 | CCOC(=O)c1nnn(-c2nonc2N)c1-c1ccc(C)cc1 | – | inactive: -1.29%
18 | CC(C)(C)c1ccc(C2(C)NC(=O)N(CC(=O)NCc3cccs3)C2=O)cc1 (stereo unspecified) | inconclusive: 23.1 µM [activator, partial curve, poor fit] | –
19 | Cc1ccc(C(=O)CC(SCC(=O)O)c2ccc([N+](=O)[O-])cc2)cc1 (stereo unspecified) | inconclusive: 29.1 µM [activator, single point] | –
20 | CC(C)n1cc(/C=C/c2cc[n+](C)cc2)c2ccccc21 | active: 18.4 µM | –
21 | COc1ccc(CN2C(=O)c3cccc4cccc(c34)C2=O)cc1 | active: 18.4 µM | –
22 | O=C(CSc1nnnn1-c1ccc(Cl)c(C(=O)O)c1)NC(c1ccccc1)c1ccccc1 | – | inactive: -10.5%
23 | COc1ccccc1OCc1cc(C(=O)N2CC3C[C@@H]4CC2C[C@H](C3)C4)no1 | inconclusive: 0.146 µM [activator, full curve, poor fit] | –
24 | CCN(CCNC(=O)C1CCCN(Cc2nc(-c3ccc(OC)cc3)oc2C)C1)c1ccccc1 (stereo unspecified) | inconclusive: 29.1 µM [activator, single point] | –

Row | Compound | Potency | re-replication activation
25 | C/C(=N\NC(=O)Cc1ccc(Cl)cc1)c1ccc(F)cc1 | – | inactive: -0.334%
26 | CCOc1cc(C(=O)N/N=C(\C)Cc2ccc(OC)cc2)cc(OCC)c1OCC | inconclusive: 29.1 µM [activator, single point] | –
27 | O=C(NC1CC2CCC(C1)N2C(=O)NC1CCCCC1)NC12CC3CC(CC(C3)C1)C2 (stereo unspecified) | inconclusive: 23.1 µM [activator, partial curve, poor fit] | –
28 | Cc1ccc(NC(=O)/C=C/c2ccc3c(c2)OCO3)cc1S(=O)(=O)N1CCOCC1 | inconclusive: 9.2 µM [activator, partial curve, poor fit] | –
29 | COc1ccc(C(=O)Nc2nc3ccccc3s2)c(OC)c1 | inconclusive: 29.1 µM [activator, single point] | –
30 | O=C1CCc2cc(NS(=O)(=O)c3ccc(F)cc3)cc3c2N1CCC3 | – | inactive: -6.69%
31 | Cc1cccc(C(=O)NNC(=O)c2ccc(Cl)cc2)c1O | inconclusive: 29.1 µM [activator, single point] | –
32 | Cc1ccc(Cl)cc1N1CCN(C(=O)C(C)n2ncn3cccc3c2=O)CC1 (stereo unspecified) | – | inactive: 13.9%
33 | O=C(c1ccncc1)N1CCN(CCc2ccccc2)CC1 | inconclusive: 0.0046 µM [activator, full curve, poor fit] | –
34 | Nc1cc(Cl)ccc1N1CCCCCC1 | – | inactive: -4.41%
35 | CCn1ncc(C2=NOC(C(=O)NCc3ccc(OC)cc3)C2)c1C (stereo unspecified) | inconclusive: 20.6 µM [activator, single point] | –
36 | O=C1/C(=C/c2ccncc2)SC(=S)N1Nc1ccccc1 | inconclusive: 29.1 µM [activator, single point] | –
37 | NS(=O)(=O)c1ccc(CNS(=O)(=O)Cc2ccc(Cl)cc2)cc1 | – | inactive: -11.4%
38 | CCOc1cc(/C=C2\C(=N)N3N=C(C)SC3=NC2=O)ccc1OCCOc1cccc(OC)c1 | inconclusive: 16.4 µM [activator, single point] | –
39 | Cc1ccc(C(=O)N/C(=C\c2ccc(-c3ccccc3[N+](=O)[O-])o2)C(=O)NCCCN2CCOCC2)cc1 | inconclusive: 8.2 µM [activator, partial curve, poor fit] | –
40 | O=C(CNC(=O)c1ccccc1)N/N=C/c1cc(Br)ccc1O | inconclusive: 3.66 µM [activator, full curve, poor fit] | –
41 | O=C(CCc1nnc2ccc(N3CCC4(CC3)OCCO4)nn12)N1CCCCC1 | – | inactive: -13.7%
42 | COCCNc1oc(-c2ccc(C)cc2)nc1C#N | – | inactive: -173%
43 | O=C(Nc1cccc(S(=O)(=O)N2CCCC2)c1)C1CCCN1C(=O)c1cccs1 (stereo unspecified) | inconclusive: 20.6 µM [activator, single point] | –
44 | CCOC(=O)C1(Nc2nccs2)Sc2ccccc2NC1=O (stereo unspecified) | active: 14.6 µM | –
45 | COc1ccc(OC)c(C(C)NC(=O)C23CC4CC(CC(C4)C2)C3)c1 (stereo unspecified) | – | inactive: -16.6%
46 | CCOC(=O)C1CCCN(C(=O)c2cc(-c3ccc(C)cc3)on2)C1 (stereo unspecified) | – | inactive: -6.5%
47 | C/C(=C/c1ccccc1)C(=O)N1CCN(c2ccccc2)CC1 | inconclusive: 29.1 µM [activator, single point] | –
48 | COCCNC(=S)NN=C1CCCCCC1 | inconclusive: 29.1 µM [activator, single point] | –

Sorted by molar mass (rising): some entries from above
Row | Compound | Potency | re-replication activation
33 | O=C(c1ccncc1)N1CCN(CCc2ccccc2)CC1 | inconclusive: 0.0046 µM [activator, full curve, poor fit] | –
25 | C/C(=N\NC(=O)Cc1ccc(Cl)cc1)c1ccc(F)cc1 | – | inactive: -0.334%
43 | O=C(Nc1cccc(S(=O)(=O)N2CCCC2)c1)C1CCCN1C(=O)c1cccs1 (stereo unspecified) | inconclusive: 20.6 µM [activator, single point] | –

Remaining list, next part.

Row | Compound | Potency | re-replication activation
49 | CCC(CO)Nc1ccc(-c2n[nH]c(=O)c3ccccc23)cc1[N+](=O)[O-] (stereo unspecified) | inconclusive: 18.4 µM [activator, single point] | –
50 | CCN(CC)c1ccc(/C=N/Nc2nn[nH]n2)cc1 | inconclusive: 29.1 µM [activator, single point] | –
51 | O=C(Cn1c2[n+](c3ccc(C(F)(F)F)cc31)CCCCC2)c1cccc([N+](=O)[O-])c1 | inconclusive: 4.61 µM [activator, full curve, poor fit] | –
52 | COc1ccc(C(=O)NC(=S)NNC(=O)c2ccco2)cc1 | inconclusive: 8.2 µM [activator, partial curve] | –
53 | CCOc1cc(-c2noc(N)c2C(=O)OC)cc(OCC)c1OCC | – | inactive: 3.3%
54 | O=C1C=C(C2OC(CO)C(O)C2O)C(=O)N1 (stereo unspecified) | inconclusive: 29.1 µM [activator, single point] | –
55 | COc1ccc(NS(=O)(=O)c2ccc(C(=O)N3CCCCCC3)cc2)cc1 | – | inactive: 19.2%
56 | COc1cccc(C2CN(c3ccc(F)cc3F)N=C2c2cccs2)c1OC (stereo unspecified) | active: 4.11 µM | –
57 | CC1(C)CC(=O)C=C(Nc2ccc(O)c(C(=O)O)c2)C1 | inconclusive: 14.6 µM [activator, single point] | –
58 | O=C(N/N=C\c1cccnc1)c1cc(-c2ccccc2)nc2c(Cl)cccc12 | inconclusive: 20.6 µM [activator, single point] | –
59 | Cc1cccc(NC(=S)NNC(=O)c2csc(C(C)C)c2)c1 | – | inactive: -1.79%
60 | Cc1cc(C(C)(C)C)cc(C)c1S(=O)(=O)N1CC(=O)Nc2ccccc21 | inconclusive: 0.146 µM [activator, full curve, poor fit] | –
61 | COC(=O)c1sc(NC(=O)COc2cccnc2[N+](=O)[O-])c(C(=O)OC)c1C | inconclusive: 1.84 µM [activator, partial curve, poor fit] | –
62 | Cc1ccc(NS(=O)(=O)c2ccc(-c3cnc(C4CC4)o3)cc2)cc1 | active: 18.4 µM | –
63 | O=C(O)CCNc1cc(N2CCN(C(=O)c3ccco3)CC2)c2noc3c2c1C(=O)c1ccccc1-3 | inconclusive: 25.9 µM [activator, single point] | –
64 | O=[N+]([O-])c1cc(S(=O)(=O)C(F)(F)F)ccc1Sc1nc2ccccc2[nH]1 | inconclusive: 18.4 µM [activator, partial curve, poor fit] | –
65 | CCCCCOc1ccc(C2C(C(=O)c3ccc(C)o3)=C(O)C(=O)N2c2cc(C)on2)cc1 (stereo unspecified) | inconclusive: 29.1 µM [activator, single point] | –
66 | O=C(Nc1ccc(Cl)cn1)c1ccc2c(Cl)c3c(nc2c1)CCC3 | – | inactive: 21.3%
67 | COc1ccc(NC(=O)CC2C(=O)N(C)C(=S)N2Cc2ccc3c(c2)OCO3)cc1 (stereo unspecified) | inconclusive: 29.1 µM [activator, partial curve, poor fit] | –
68 | CCN(C(=O)c1cc2c(=O)[nH]c3ccc(C)cc3c2s1)c1ccc(F)cc1 | inconclusive: 29.1 µM [activator, single point] | –
69 | O=C(c1ccco1)N(CCCN1CCOCC1)c1nc(-c2ccc(F)cc2)cs1 | inconclusive: 16.4 µM [activator, single point] | –
70 | COc1ccccc1NC(=S)N1CCN(c2ccccc2F)CC1 | – | inactive: 3.28%
71 | CC(=O)Nc1cc(C(=O)NCCN2CCN(Cc3ccccc3)CC2)ccc1Sc1ccc(C)cc1 | inconclusive: 23.1 µM [activator, single point] | –

Quoted at random: three entries already listed, in no set order.
Row | Compound | Potency | re-replication activation
55 | COc1ccc(NS(=O)(=O)c2ccc(C(=O)N3CCCCCC3)cc2)cc1 | – | inactive: 19.2%
58 | O=C(N/N=C\c1cccnc1)c1cc(-c2ccccc2)nc2c(Cl)cccc12 | inconclusive: 20.6 µM [activator, single point] | –
67 | COc1ccc(NC(=O)CC2C(=O)N(C)C(=S)N2Cc2ccc3c(c2)OCO3)cc1 (stereo unspecified) | inconclusive: 29.1 µM [activator, partial curve, poor fit] | –
